No constants are given. Whether binding was seen depends on the method and setting. For some assays here: Tags and fused reporters may be left off the sequences shown.

The target of assay [1] is T1, GST-tagged AcsA (Bacillus subtilis) (Bacillus subtilis) (UniProt P39062).
T1 sequence: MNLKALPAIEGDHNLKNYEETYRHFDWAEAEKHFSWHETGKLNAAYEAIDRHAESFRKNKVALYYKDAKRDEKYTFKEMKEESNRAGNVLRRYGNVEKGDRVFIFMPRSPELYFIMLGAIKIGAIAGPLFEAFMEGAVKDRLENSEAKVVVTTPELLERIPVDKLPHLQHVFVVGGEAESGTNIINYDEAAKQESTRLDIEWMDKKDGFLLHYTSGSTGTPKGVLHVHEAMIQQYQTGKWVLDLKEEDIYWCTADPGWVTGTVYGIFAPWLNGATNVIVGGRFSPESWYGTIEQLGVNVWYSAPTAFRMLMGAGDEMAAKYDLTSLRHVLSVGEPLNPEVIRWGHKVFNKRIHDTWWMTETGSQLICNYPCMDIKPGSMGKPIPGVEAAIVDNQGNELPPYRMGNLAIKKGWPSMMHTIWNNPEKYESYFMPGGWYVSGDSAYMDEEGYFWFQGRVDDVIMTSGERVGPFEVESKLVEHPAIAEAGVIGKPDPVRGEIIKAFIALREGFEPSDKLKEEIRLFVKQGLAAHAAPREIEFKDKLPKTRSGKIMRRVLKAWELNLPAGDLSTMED
Briefly: pull-down; 200 μg GST-tagged protein immobilised on GST-Sepharose beads in spin columns, 200 μg partner added in SEC buffer (20 mM HEPES-Na pH 7.5, 200 mM NaCl, 20 mM KCl, 20 mM MgCl2), 30 min, three washes, elution with 20 mM GSH, Coomassie-stained SDS-PAGE; without Ac-CoA (also with 1 mM ATP, 1 mM AMP or 130 μM CoA, or with AcuB and AcuC added); both purified.

In assay [2] the target is T2, GST-tagged AcuA (Bacillus subtilis) (Bacillus subtilis) (UniProt P39065).
T2 sequence: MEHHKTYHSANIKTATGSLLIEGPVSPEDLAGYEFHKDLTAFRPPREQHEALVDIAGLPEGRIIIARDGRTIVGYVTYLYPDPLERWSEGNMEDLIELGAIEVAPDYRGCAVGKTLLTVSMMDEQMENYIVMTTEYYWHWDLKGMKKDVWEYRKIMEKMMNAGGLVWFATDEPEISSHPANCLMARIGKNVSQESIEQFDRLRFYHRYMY
Briefly: pull-down; GST-AcuA immobilised on GST-Sepharose beads, AcsA as prey, with 130 μM Ac-CoA; Coomassie-stained SDS-PAGE; both purified.

Assay [3] addresses T3, Acetyl-CoA synthetase AcsA (Bacillus subtilis) (Bacillus subtilis) (UniProt P39062).
T3 sequence: T1 sequence
Briefly: condition: only with 200-1000 μM acetate, 500 μM ATP and 500 μM CoA, 60 min; mass photometry; AcsA and AcuA incubated with 500 μM ATP, 500 μM CoA and 0.02-5 mM acetate for 60 min, then mass photometry; both purified.

Assay [4] has as its target GCN5-related N-acetyltransferase AcuA (Bacillus subtilis) (Bacillus subtilis) (UniProt P39065). Briefly: mass photometry; TwoMP mass photometer, SEC buffer, 37.5 nM final protein concentration; proteins alone or 37.5 nM AcsA with 37.5 nM AcuA; both purified.

B1: AcuC, histone-deacetylase (HDAC)-type deacetylase (Bacillus subtilis) (enzyme, UniProt P39067 1-387)
chain: MRDSVFIYSPSYQTYMFHQEHPFNQQRVLLTYDLLKTINAFDDGDIVTPRLASEEELSLVHTDDYIQAVKLAGAGKLPAEEGESYGLGTEDTPVFAGMHEAASLLVGGTLTAADWVMSGQALHAANLGGGLHHGFRGRASGFCIYNDSAVAIQYIQKKYSARVLYIDTDAHHGDGVQFTFYDNPDVCTLSIHETGRYLFPGTGQIQEKGSGKGYGYSFNIPLDAFTEDDSFLEAYRTAASEVAAYFEPDVIISQNGADAHYYDPLTHLSATINIYEEIPRLAHTLAHQYCGGKWIAVGGGGYDIWRVVPRAWARIWLEMKGIDPGHEIPPEWIVKWQKQCPVALPSSWSDPADLYPPIPRKPEITEKNAQTVSKALYAIRSEQQRTK
Consider B1, for which, in assay [1], the binding entry is on record as “no binding”.

B2: Acetyl-CoA synthetase AcsA (Bacillus subtilis) (enzyme)
chain: T1 sequence
notes: AcsA, acetyl-CoA synthetase of Bacillus subtilis; gene amplified from genomic DNA of strain 3610; catalytic lysine K549; the gene came from strain 3610; Monomer and dimer seen by mass photometry; also called Ac-CoA synthetase; source: E. coli BL21(DE3), purified (HisTrap, SEC)
Consider B2, for which the binding entry in assay [2] is listed as “no binding (condition: with 130 μM Ac-CoA)”.

B3: AcuB (Bacillus subtilis) (protein, UniProt P39066 1-214)
chain: MIVEQIMKRDVITLTKTDTLETAICKLKEFHIRHLPVVDEERHVIGMITDRDMKQASPSIFEENKRSLFLTRSVDSIMKKDVVCAHPLDFVEEISAVFYEHGIGCLPVVHHQKLIGILTKTDLLRTFVKLTGADQPGSQIEIKVNDITKSLAEISSLCQDLQVKILSVLVYPHDDPGVKVLVFRVKTMNPLPFLQALQRNGHHVVWPSEQRDLL
Take B3: the binding result in assay [1] is “no binding”.

B4: GCN5-related N-acetyltransferase AcuA (Bacillus subtilis) (enzyme)
chain: T2 sequence
On to B4, for which the results for the binding result in assay [3] and in assay [4] were “no binding” and “no binding (tested: 37 nM)”, respectively.

The values above are taken from paper PMC11910552, “Regulation of acetyl-CoA biosynthesis via an intertwined acetyl-CoA synthetase/acetyltransferase complex” (Nature Communications, 2025).
